Differences between knockout arms are mostly noise.
System: MDA-MB-231
Test: relative cell number vs DMSO control (72 h) (% of DMSO); higher = less growth inhibition (more cells)
Protocol: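 QMAP-Seq: a pool of 5 breast cancer cell lines (ZR-75-1, SKBR3, HCC-38, MDA-MB-231, BT-20), each carrying 12 doxycycline-inducible Cas9 sgRNA perturbations (11 knockouts plus non-targeting sgNT), was treated with compounds for 72 h at four 10-fold doses (10 nM-10 uM or 1 nM-1 uM range). Barcodes were amplified and sequenced, and cell number was interpolated from 293T spike-in standard curves. The result is expressed as % of the median of DMSO wells. Two biological replicates.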

CC[C@]1(O)C[C@H]2CN(CCc3c([nH]c4ccccc34)[C@@](C(=O)OC)(c3cc4c(cc3OC)N(C=O)[C@H]3[C@@](O)(C(=O)OC)[C@H](OC(C)=O)[C@]5(CC)C=CCN6CC[C@]43[C@@H]65)C2)C1 [Vincristine]
Conditions | relative cell number
sgRNA knockout: sgATF3, 10 nM | 28.8
sgRNA knockout: sgATF3, 100 nM | 19.3
sgRNA knockout: sgATF3, 1000 nM | 16
sgRNA knockout: sgATF3, 10000 nM | 17.1
sgRNA knockout: sgATF4, 10 nM | 32.6
sgRNA knockout: sgATF4, 100 nM | 14.1
sgRNA knockout: sgATF4, 1000 nM | 13.2
sgRNA knockout: sgATF4, 10000 nM | 14.5
sgRNA knockout: sgATF6, 10 nM | 41.9
sgRNA knockout: sgATF6, 100 nM | 17.9
sgRNA knockout: sgATF6, 1000 nM | 17.7
sgRNA knockout: sgATF6, 10000 nM | 11.5
sgRNA knockout: sgATG7, 10 nM | 28.5
sgRNA knockout: sgATG7, 100 nM | 22.6
sgRNA knockout: sgATG7, 1000 nM | 16.6
sgRNA knockout: sgATG7, 10000 nM | 14.3
sgRNA knockout: sgERN1, 10 nM | 35.524
sgRNA knockout: sgERN1, 100 nM | 17
sgRNA knockout: sgERN1, 1000 nM | 17.5
sgRNA knockout: sgERN1, 10000 nM | 19.1
sgRNA knockout: sgHSF1, 10 nM | 28.9
sgRNA knockout: sgHSF1, 100 nM | 20.9
sgRNA knockout: sgHSF1, 1000 nM | 21.3
sgRNA knockout: sgHSF1, 10000 nM | 15.8
sgRNA knockout: sgHSF2, 10 nM | 33.7
sgRNA knockout: sgHSF2, 100 nM | 17.1
sgRNA knockout: sgHSF2, 1000 nM | 16.6
sgRNA knockout: sgHSF2, 10000 nM | 17.3
sgRNA knockout: sgKEAP1, 10 nM | 30.5
sgRNA knockout: sgKEAP1, 100 nM | 16.2
sgRNA knockout: sgKEAP1, 1000 nM | 9.05
sgRNA knockout: sgKEAP1, 10000 nM | 15.4
sgRNA knockout: sgNFE2L2, 10 nM | 30.2
sgRNA knockout: sgNFE2L2, 100 nM | 19.74
sgRNA knockout: sgNFE2L2, 1000 nM | 11.6
sgRNA knockout: sgNFE2L2, 10000 nM | 13.2
sgRNA knockout: sgSLC35F2, 10 nM | 30
sgRNA knockout: sgSLC35F2, 100 nM | 16.1
sgRNA knockout: sgSLC35F2, 1000 nM | 13.1
sgRNA knockout: sgSLC35F2, 10000 nM | 15
sgRNA knockout: sgXBP1, 10 nM | 37.5
sgRNA knockout: sgXBP1, 100 nM | 24
sgRNA knockout: sgXBP1, 1000 nM | 21.5
sgRNA knockout: sgXBP1, 10000 nM | 19.6
